The list shows a part of the results.
What was measured:
Assay in all cases: log2 fold change, soluble protein after heating vs DMSO (PISA); higher = thermal stabilisation; K562 cells, 10 uM, 30 min; active = over 0.2 and 3.5 SD of the protein, either way, in both replicates (recomputed)
saracatinib = compound: CN1CCN(CCOc2cc(OC3CCOCC3)c3c(Nc4c(Cl)ccc5c4OCO5)ncnc3c2)CC1 [saracatinib]
Outline: (§1)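 K562 cells at 2×10^6 cells/mL were given 10 μM compound for 30 min. Aliquots then went through 3 min of heating across 48°C-58°C, were pooled, and were extracted in PBS with 0.5% NP-40 at 4°C, and the supernatant after 21,000xg for 90 min was quantified by TMTpro 16plex LC-MS/MS with channel sums equalised. Thermal stability relative to control samples, from duplicates, is given as log2 fold change.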

Protein sequences, listed by entry. Tags and fused reporters are not part of them. Lines headed by an entry give the natural chain unless they say otherwise; changes in a name come on top.
UniProt Q15428: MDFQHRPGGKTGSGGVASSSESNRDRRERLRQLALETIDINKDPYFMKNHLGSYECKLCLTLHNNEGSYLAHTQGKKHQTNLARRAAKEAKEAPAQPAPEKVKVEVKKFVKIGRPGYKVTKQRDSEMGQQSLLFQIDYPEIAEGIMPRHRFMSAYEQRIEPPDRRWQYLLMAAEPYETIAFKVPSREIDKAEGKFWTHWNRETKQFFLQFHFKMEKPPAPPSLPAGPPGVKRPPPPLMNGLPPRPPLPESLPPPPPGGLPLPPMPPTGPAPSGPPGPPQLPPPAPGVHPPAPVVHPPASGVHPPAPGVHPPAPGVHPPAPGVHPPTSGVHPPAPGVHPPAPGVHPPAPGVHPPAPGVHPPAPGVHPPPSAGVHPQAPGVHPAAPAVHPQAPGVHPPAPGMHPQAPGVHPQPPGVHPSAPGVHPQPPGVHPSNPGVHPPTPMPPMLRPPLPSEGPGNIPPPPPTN
UniProt O43765: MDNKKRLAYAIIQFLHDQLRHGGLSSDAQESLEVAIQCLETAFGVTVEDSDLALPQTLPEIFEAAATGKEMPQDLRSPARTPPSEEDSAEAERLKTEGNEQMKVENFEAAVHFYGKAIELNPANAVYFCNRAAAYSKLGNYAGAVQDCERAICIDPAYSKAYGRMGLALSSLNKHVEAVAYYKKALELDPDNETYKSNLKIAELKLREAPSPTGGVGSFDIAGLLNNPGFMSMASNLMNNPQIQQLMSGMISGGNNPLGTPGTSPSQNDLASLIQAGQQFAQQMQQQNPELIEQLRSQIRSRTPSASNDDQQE
UniProt O14796: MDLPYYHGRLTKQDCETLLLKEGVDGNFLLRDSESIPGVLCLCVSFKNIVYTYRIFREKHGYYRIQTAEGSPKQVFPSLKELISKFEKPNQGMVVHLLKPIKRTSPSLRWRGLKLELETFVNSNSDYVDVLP
UniProt Q9HAT2: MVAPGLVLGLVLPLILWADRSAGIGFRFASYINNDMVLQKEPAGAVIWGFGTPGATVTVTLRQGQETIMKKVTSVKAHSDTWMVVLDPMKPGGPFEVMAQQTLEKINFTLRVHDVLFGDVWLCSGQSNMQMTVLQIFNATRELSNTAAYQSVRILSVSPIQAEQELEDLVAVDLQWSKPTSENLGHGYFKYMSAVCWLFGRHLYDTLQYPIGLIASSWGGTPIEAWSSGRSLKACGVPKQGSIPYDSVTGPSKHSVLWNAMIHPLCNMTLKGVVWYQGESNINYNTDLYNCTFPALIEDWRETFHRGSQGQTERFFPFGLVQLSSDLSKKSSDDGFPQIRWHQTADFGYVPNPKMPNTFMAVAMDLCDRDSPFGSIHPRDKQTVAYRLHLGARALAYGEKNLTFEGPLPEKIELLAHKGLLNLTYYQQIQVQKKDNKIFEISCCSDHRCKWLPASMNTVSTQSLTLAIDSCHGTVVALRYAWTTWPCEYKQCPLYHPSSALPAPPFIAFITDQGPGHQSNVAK
UniProt Q6P4A7: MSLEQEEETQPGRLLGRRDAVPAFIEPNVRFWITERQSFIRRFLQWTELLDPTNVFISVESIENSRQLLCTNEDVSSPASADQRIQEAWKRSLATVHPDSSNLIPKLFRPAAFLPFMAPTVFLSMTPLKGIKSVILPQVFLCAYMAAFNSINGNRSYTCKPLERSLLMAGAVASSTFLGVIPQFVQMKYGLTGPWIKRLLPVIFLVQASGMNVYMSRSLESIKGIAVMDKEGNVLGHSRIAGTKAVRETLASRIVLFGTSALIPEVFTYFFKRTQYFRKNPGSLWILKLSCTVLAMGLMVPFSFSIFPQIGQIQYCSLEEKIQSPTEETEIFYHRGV
UniProt Q9BQE4, whole entry, looked up: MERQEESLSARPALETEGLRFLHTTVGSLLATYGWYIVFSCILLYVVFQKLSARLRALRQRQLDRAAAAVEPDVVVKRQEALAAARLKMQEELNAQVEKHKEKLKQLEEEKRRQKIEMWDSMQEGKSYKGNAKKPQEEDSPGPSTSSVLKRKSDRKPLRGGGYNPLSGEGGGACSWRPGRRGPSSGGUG
UniProt O43236: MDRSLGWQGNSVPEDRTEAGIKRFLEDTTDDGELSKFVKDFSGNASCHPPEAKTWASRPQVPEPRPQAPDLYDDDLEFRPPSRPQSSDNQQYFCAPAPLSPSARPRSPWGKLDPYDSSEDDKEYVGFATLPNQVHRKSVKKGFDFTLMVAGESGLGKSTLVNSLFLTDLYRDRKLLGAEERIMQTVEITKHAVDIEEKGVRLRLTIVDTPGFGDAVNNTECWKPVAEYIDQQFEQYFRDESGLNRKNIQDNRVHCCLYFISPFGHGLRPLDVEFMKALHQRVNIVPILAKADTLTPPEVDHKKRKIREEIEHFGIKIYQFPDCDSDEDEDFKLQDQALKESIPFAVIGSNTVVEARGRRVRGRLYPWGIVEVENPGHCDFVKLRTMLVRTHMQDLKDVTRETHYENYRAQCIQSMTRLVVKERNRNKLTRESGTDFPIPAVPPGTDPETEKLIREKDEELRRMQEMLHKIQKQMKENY
UniProt Q9BRV8: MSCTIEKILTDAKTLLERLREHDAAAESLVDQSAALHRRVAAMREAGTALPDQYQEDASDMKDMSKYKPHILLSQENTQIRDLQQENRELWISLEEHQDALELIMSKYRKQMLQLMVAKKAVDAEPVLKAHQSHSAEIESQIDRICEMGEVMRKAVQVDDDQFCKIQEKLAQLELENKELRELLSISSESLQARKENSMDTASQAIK

sotrastaurin = compound: CN1CCN(c2nc(C3=C(c4c[nH]c5ccccc45)C(=O)NC3=O)c3ccccc3n2)CC1 [sotrastaurin]
Outline: as §1

alvocidib = compound: CN1CC[C@H](c2c(O)cc(O)c3c(=O)cc(-c4ccccc4Cl)oc23)[C@H](O)C1 [alvocidib]
Outline: as §1

Tubastatin A = compound: CN1CCc2c(c3ccccc3n2Cc2ccc(C(=O)NO)cc2)C1 [Tubastatin A]
Outline: as §1

[1] = compound: CNC(=O)C1=CC=CC=C1NC2=NC(=NC=C2Cl)NC3=C(C=C(C=C3)N4CCOCC4)OC
Outline: as §1

defactinib = compound: CNC(=O)c1ccc(Nc2ncc(C(F)(F)F)c(NCc3nccnc3N(C)S(C)(=O)=O)n2)cc1 [defactinib]
Outline: as §1

rucaparib = compound: CNCc1ccc(-c2[nH]c3cc(F)cc4c3c2CCNC4=O)cc1 [rucaparib]
Outline: as §1

[2] = compound: CNc1nc(-c2ccc3c(N)n[nH]c3c2)cc(N2C[C@@H](C(=O)NC3CCCCC3)CC[C@H]2C)n1
Outline: as §1

encorafenib = compound: COC(=O)N[C@@H](C)CNc1nccc(-c2cn(C(C)C)nc2-c2cc(Cl)cc(NS(C)(=O)=O)c2F)n1 [encorafenib]
Outline: as §1

[3] = compound: COC(=O)[C@H](CCSC)NC(=O)C1=C(C=C(C=C1)NC[C@H](CS)N)C2=CC=CC=C2
Outline: as §1

[4] = compound: COC1=CC=C(C=C1)CN2C=CC3=C2C=C(C=C3)C(=O)NO
Outline: as §1

filanesib = compound: CON(C)C(=O)N1N=C(c2cc(F)ccc2F)S[C@@]1(CCCN)c1ccccc1 [filanesib]
Outline: as §1

zotarolimus = compound: CO[C@H]1C[C@@H]2CC[C@@H](C)[C@@](O)(O2)C(=O)C(=O)N2CCCC[C@H]2C(=O)O[C@H]([C@H](C)C[C@@H]2CC[C@H](n3cnnn3)[C@H](OC)C2)CC(=O)[C@H](C)/C=C(\C)[C@@H](O)[C@@H](OC)C(=O)[C@H](C)C[C@H](C)/C=C/C=C/C=C/1C [zotarolimus]
Outline: as §1

idasanutlin = compound: COc1cc(C(=O)O)ccc1NC(=O)[C@@H]1N[C@@H](CC(C)(C)C)[C@](C#N)(c2ccc(Cl)cc2F)[C@H]1c1cccc(Cl)c1F [idasanutlin]
Outline: as §1

alisertib = compound: COc1cc(Nc2ncc3c(n2)-c2ccc(Cl)cc2C(c2c(F)cccc2OC)=NC3)ccc1C(=O)O [alisertib]
Outline: as §1

[5] = compound: COc1cc2nc(-c3cc(F)ccc3O)nc(N[C@@H]3CNC[C@H]3C(C)(C)O)c2cc1OC
Outline: as §1

gefitinib = compound: COc1cc2ncnc(Nc3ccc(F)c(Cl)c3)c2cc1OCCCN1CCOCC1 [gefitinib]
Outline: as §1

[6] = compound: COc1cccc2cc(-c3nc([C@H]4CC[C@H](C(=O)O)CC4)n4ncnc(N)c34)[nH]c12
Outline: as §1

lapatinib = compound: CS(=O)(=O)CCNCc1ccc(-c2ccc3ncnc(Nc4ccc(OCc5cccc(F)c5)c(Cl)c4)c3c2)o1 [lapatinib]
Outline: as §1

pictilisib = compound: CS(=O)(=O)N1CCN(Cc2cc3nc(-c4cccc5[nH]ncc45)nc(N4CCOCC4)c3s2)CC1 [pictilisib]
Outline: as §1

| Target | log2 fold change (saracatinib) | log2 fold change (sotrastaurin) | log2 fold change (alvocidib) | log2 fold change (Tubastatin A) | log2 fold change [1] | log2 fold change (defactinib) | log2 fold change (rucaparib) | log2 fold change [2] | log2 fold change (encorafenib) | log2 fold change [3] | log2 fold change [4] | log2 fold change (filanesib) | log2 fold change (zotarolimus) | log2 fold change (idasanutlin) | log2 fold change (alisertib) | log2 fold change [5] | log2 fold change (gefitinib) | log2 fold change [6] | log2 fold change (lapatinib) | log2 fold change (pictilisib) |
| --- | --- | --- | --- | --- | --- | --- | --- | --- | --- | --- | --- | --- | --- | --- | --- | --- | --- | --- | --- | --- |
| SF3A2 (UniProt Q15428) | inactive: -0.014 | inactive: 0.049 | inactive: -0.028 | inactive: -0.028 | inactive: 0.06 | inactive: 0.001 | inactive: 0.081 | inactive: -0.03 | inactive: 0.03 | inactive: -0.023 | inactive: -0.028 | inactive: 0.162 | inactive: 0.006 | inactive: 0.017 | inactive: -0.085 | inactive: 0.038 | inactive: -0.01 | inactive: -0.09 | inactive: 0.01 | inactive: 0.078 |
| SGTA (UniProt O43765) | inactive: 0.003 | inactive: -0.039 | inactive: -0.047 | inactive: 0.012 | inactive: -0.007 | inactive: -0.075 | inactive: -0.006 | inactive: -0.033 | inactive: 0.012 | inactive: 0 | inactive: 0.051 | inactive: -0.061 | inactive: 0.025 | inactive: -0.002 | inactive: -0.128 | inactive: 0 | inactive: -0.008 | inactive: 0.006 | inactive: -0.014 | inactive: 0.045 |
| SH2D1B (UniProt O14796) | active: -1 | inactive: 0.05 | – | inactive: -0.046 | inactive: -0.214 | inactive: -0.06 | inactive: 0.045 | inactive: -0.026 | inactive: 0.295 | inactive: 0.242 | inactive: 0.129 | inactive: 0.086 | inactive: -0.037 | inactive: 0.117 | inactive: -0.075 | inactive: 0.072 | inactive: -0.078 | inactive: 0.236 | inactive: 0.053 | inactive: -0.004 |
| SIAE (UniProt Q9HAT2) | inactive: -0.195 | inactive: -0.248 | inactive: 0.028 | inactive: 0.004 | inactive: -0.052 | inactive: 0 | – | inactive: -0.086 | – | inactive: 0.009 | inactive: -0.233 | inactive: -0.222 | inactive: -0.063 | inactive: 0.029 | – | inactive: 0.138 | inactive: 0.032 | – | inactive: -0.208 | inactive: 0.16 |
| SFXN4 isoform 3 (UniProt Q6P4A7) | inactive: 0.017 | inactive: -0.059 | inactive: 0.024 | inactive: 0.041 | inactive: -0.199 | inactive: -0.066 | inactive: -0.092 | inactive: -0.107 | inactive: 0.156 | inactive: -0.04 | – | inactive: -0.216 | inactive: 0.075 | inactive: -0.303 | – | inactive: -0.126 | – | – | inactive: 0.195 | inactive: 0.004 |
| SELENOS (UniProt Q9BQE4) | inactive: 0.046 | inactive: -0.015 | inactive: -0.022 | inactive: 0.061 | inactive: 0.003 | inactive: -0.046 | inactive: -0.038 | inactive: -0.034 | inactive: -0.011 | inactive: 0.03 | inactive: 0.044 | inactive: -0.002 | inactive: 0.02 | inactive: 0.04 | inactive: -0.06 | inactive: -0.079 | inactive: 0.53 | inactive: 0.04 | inactive: -0.064 | inactive: -0.015 |
| SEPTIN4 isoform 4 (UniProt O43236) | inactive: 0.106 | inactive: -0.135 | inactive: -0.196 | inactive: 0.052 | inactive: 0.033 | inactive: -0.033 | inactive: -0.35 | inactive: 0.019 | inactive: 0.283 | inactive: -0.049 | inactive: 0.764 | inactive: -0.058 | inactive: 0.116 | inactive: -0.279 | inactive: 0.181 | inactive: -0.015 | inactive: 0.055 | inactive: 0.008 | inactive: 0.03 | inactive: 0.015 |
| SIKE1 (UniProt Q9BRV8) | inactive: -0.025 | inactive: -0.075 | inactive: -0.067 | inactive: 0.03 | inactive: -0.047 | inactive: -0.067 | – | inactive: 0.018 | – | inactive: -0.028 | inactive: -0.071 | inactive: 0.02 | inactive: 0.052 | inactive: 0.03 | inactive: 0.324 | inactive: 0.045 | inactive: 0.11 | inactive: 0.151 | inactive: -0.022 | inactive: 0.036 |

From the supplement of paper PMC10849652
